Data reported in patent publication US11827616B2, “Heterocyclic compounds as pesticides” (Discovery Purchaser Corporation, priority 2018, dated 2023).
Some of these results come from one statement about several compounds together. At least one structure is not confirmed: it was looked up by name or label, or the drawing left a doubt. Some ranges recur; such a range may be that of the whole group of compounds.

Columns and labels:
Type in all cases: in vivo
Conditions in all cases: exposure 30 minutes, 24 hours after contact
[1] = tested on: Aedes aegypti strain MONHEIM; assay: Aedes test (AEDSAE surface treatment)
Procedure: Aedes Test (AEDSAE Surface Treatment)
(§1) Solvent: acetone+2000 ppm rapeseed oil methyl ester (RME)
To produce an appropriate active compound formulation, the active compound is dissolved in the solvent (2 mg/ml). The active compound formulation is pipetted onto a glazed tile and, after it has dried off, adult mosquitoes of the species Aedes aegypti strain MONHEIM are placed onto the treated tile. The exposure time is 30 minutes. 24 hours after contact with the treated surface, mortality in % is determined. 100% means that all mosquitoes have been killed; 0% means that none of the mosquitoes have been killed.

[2] = tested on: Anopheles gambiae strain RSPH (homozygot kdr); assay: Anopheles test (ANPHGB surface treatment)
Procedure: Anopheles Test (ANPHGB Surface Treatment)
as §1
(§2) To produce an appropriate active compound formulation, the active compound is dissolved in the solvent (2 mg/ml). The active compound formulation is pipetted onto a glazed tile and, after it has dried off, adult mosquitoes of the species Anopheles gambiae strain RSPH (homozygot kdr) are placed onto the treated tile. The exposure time is 30 minutes.
(§3) 24 hours after contact with the treated surface, mortality in % is determined. 100% means that all mosquitoes have been killed; 0% means that none of the mosquitoes have been killed.

[3] = tested on: Anopheles funestus strain FUMOZ-R; assay: Anopheles test (ANPHFU surface treatment)
Procedure: Anopheles Test (ANPHFU Surface Treatment)
as §1
as §2, with “funestus” for “gambiae”, “FUMOZ-R (Hunt et al., Med Vet Entomol. 2005 Sep.; 19 (3):271-5)” for “RSPH (homozygot kdr)”
as §3

Measured: efficacy (mortality in %)

CON(C)CCOc1ccc(COc2cccc3c(Cl)c(Cl)ccc23)cn1 [Example 1]
80-100%: [1]; application rate 20 mg/m^2 | [1]; application rate 100 mg/m^2 | [2]; application rate 20 mg/m^2 | [2]; application rate 100 mg/m^2 | [3]; application rate 20 mg/m^2 | [3]; application rate 100 mg/m^2

CON(C)CCOc1ncc(COc2ccc(Cl)c3ccccc23)cc1C(F)F [Example 6]
80-100%: [2]; application rate 100 mg/m^2 | [3]; application rate 100 mg/m^2

CON(C)CCOc1ccc(COc2ccc3oc4ccccc4c3c2)cn1 [Example 8]
80-100%: [1]; application rate 20 mg/m^2 | [2]; application rate 20 mg/m^2

CON(C)CCOc1ccc(COc2ccc(F)c(-c3cccc(OC(F)(F)F)c3)c2)cn1 [Example 10]
80-100%: [1]; application rate 20 mg/m^2 | [2]; application rate 20 mg/m^2 | [3]; application rate 20 mg/m^2

CON(C)CCOc1ccc(COc2cccc(-c3ccccc3)c2)cn1 [Example 13]
80-100%: [1]; application rate 20 mg/m^2 | [2]; application rate 20 mg/m^2

CCN(CC)CCOc1ccc(COc2ccc(Cl)c(OC(F)(F)F)c2)cn1 [Example 14]
80-100%: [1]; application rate 100 mg/m^2

CON(C)CCOc1ccc(COc2ccc(Cl)c(Cl)c2)cn1 [Example 15]
80-100%: [1]; application rate 100 mg/m^2 | [3]; application rate 100 mg/m^2

CON(C)CCOc1ccc(COc2cccc3c(Cl)c(Cl)ccc23)nc1 [Example 16]
80-100%: [1]; application rate 20 mg/m^2 | [1]; application rate 100 mg/m^2 | [2]; application rate 20 mg/m^2 | [2]; application rate 100 mg/m^2

CON(C)CCOc1ccc(COc2cccc3c(Cl)c(Cl)ccc23)nc1Cl [Example 18]
80-100%: [1]; application rate 20 mg/m^2 | [1]; application rate 100 mg/m^2 | [2]; application rate 20 mg/m^2 | [2]; application rate 100 mg/m^2 | [3]; application rate 20 mg/m^2 | [3]; application rate 100 mg/m^2

CON(C)CCOc1cnc(COc2ccc(Cl)c3ccccc23)c(F)c1 [Example 19]
80-100%: [1]; application rate 20 mg/m^2 | [1]; application rate 100 mg/m^2 | [2]; application rate 20 mg/m^2 | [2]; application rate 100 mg/m^2 | [3]; application rate 20 mg/m^2 | [3]; application rate 100 mg/m^2

CON(C)CCOc1cnc(COc2ccc3oc4ccccc4c3c2)c(F)c1 [Example 20]
80-100%: [1]; application rate 20 mg/m^2 | [1]; application rate 100 mg/m^2 | [2]; application rate 20 mg/m^2 | [2]; application rate 100 mg/m^2 | [3]; application rate 20 mg/m^2 | [3]; application rate 100 mg/m^2

CON(C)CCOc1cnc(COc2ccc(Br)c3ccccc23)c(F)c1 [Example 21]
80-100%: [1]; application rate 20 mg/m^2 | [1]; application rate 100 mg/m^2 | [2]; application rate 20 mg/m^2 | [2]; application rate 100 mg/m^2 | [3]; application rate 20 mg/m^2 | [3]; application rate 100 mg/m^2

CON(C)CCOc1cnc(COc2ccc3sc4ccccc4c3c2)c(F)c1 [Example 23]
80-100%: [1]; application rate 20 mg/m^2 | [1]; application rate 100 mg/m^2 | [2]; application rate 20 mg/m^2 | [2]; application rate 100 mg/m^2 | [3]; application rate 20 mg/m^2 | [3]; application rate 100 mg/m^2

CON(C)CCOc1cnc(COc2cccc3c(F)cccc23)c(F)c1 [Example 24]
80-100%: [1]; application rate 20 mg/m^2 | [1]; application rate 100 mg/m^2 | [2]; application rate 20 mg/m^2 | [2]; application rate 100 mg/m^2 | [3]; application rate 100 mg/m^2

CON(C)CCOc1cnc(COc2ccc(Cl)c3ccccc23)c(Cl)c1 [Example 25]
80-100%: [2]; application rate 20 mg/m^2 | [3]; application rate 20 mg/m^2

CON(C)CCOc1cnc(COc2cccc3c(Cl)c(Cl)ccc23)c(Cl)c1 [Example 26]
80-100%: [2]; application rate 20 mg/m^2

CN(CC#N)CCOc1cnc(COc2cccc3c(Cl)c(Cl)ccc23)c(F)c1 [Example 28]
80-100%: [1]; application rate 20 mg/m^2 | [2]; application rate 20 mg/m^2 | [3]; application rate 20 mg/m^2

CON(C)CCOc1ccc(COc2ccc3oc4ccccc4c3c2)nc1 [Example 31]
80-100%: [1]; application rate 20 mg/m^2 | [2]; application rate 20 mg/m^2 | [3]; application rate 20 mg/m^2

CN(CCOc1cnc(COc2ccc3oc4ccccc4c3c2)c(F)c1)C(C)(C)C [Example 34]
80-100%: [2]; application rate 100 mg/m^2

CON(C)CCOc1cnc(COc2ccc(Cl)c(-c3cccc(OC(F)(F)F)c3)c2)c(F)c1 [Example 48]
80-100%: [1]; application rate 20 mg/m^2 | [2]; application rate 20 mg/m^2 | [3]; application rate 20 mg/m^2

CON(C)CCOc1cnc(COc2ccc(F)c(-c3cccc(Cl)c3)c2)c(F)c1 [Example 49]
80-100%: [1]; application rate 20 mg/m^2 | [2]; application rate 20 mg/m^2 | [3]; application rate 20 mg/m^2

CON(C)CCOc1cnc(COc2ccc(F)c(-c3cccc(OC(F)(F)F)c3)c2)c(F)c1 [Example 50]
80-100%: [1]; application rate 20 mg/m^2 | [2]; application rate 20 mg/m^2 | [3]; application rate 20 mg/m^2

CON(C)CCOc1cnc(COc2cccc(-c3cccc(OC(F)(F)F)c3)c2)c(F)c1 [Example 53]
80-100%: [1]; application rate 20 mg/m^2 | [1]; application rate 100 mg/m^2 | [2]; application rate 20 mg/m^2 | [2]; application rate 100 mg/m^2 | [3]; application rate 20 mg/m^2 | [3]; application rate 100 mg/m^2

CCOc1cc(OCc2ncc(OCCN(C)OC)cc2F)ccc1Cl [Example 54]
80-100%: [1]; application rate 20 mg/m^2 | [2]; application rate 20 mg/m^2 | [3]; application rate 20 mg/m^2

CON(C)CCOc1cnc(COc2ccc(F)c(-c3cccc(F)c3)c2)c(F)c1 [Example 55]
80-100%: [1]; application rate 20 mg/m^2 | [2]; application rate 20 mg/m^2 | [3]; application rate 20 mg/m^2

CON(C)CCOc1cnc(COc2ccc(Cl)c(-c3cccc(Cl)c3)c2)c(F)c1 [Example 56]
80-100%: [1]; application rate 20 mg/m^2 | [2]; application rate 20 mg/m^2 | [3]; application rate 20 mg/m^2

COc1cc(OCc2ncc(OCCN(C)OC)cc2F)ccc1Cl [Example 58]
80-100%: [1]; application rate 20 mg/m^2 | [2]; application rate 20 mg/m^2 | [3]; application rate 20 mg/m^2

CON(C)CCOc1cnc(COc2ccc(Cl)c(-c3cccc(F)c3)c2)c(F)c1 [Example 61]
80-100%: [1]; application rate 20 mg/m^2

CON(C)CCOc1cnc(COc2ccc(Cl)c(-c3ccccc3)c2)c(F)c1 [Example 63]
80-100%: [1]; application rate 20 mg/m^2

CON(C)CCOc1cnc(COc2ccc(F)c(Br)c2)c(F)c1 [Example 83]
80-100%: [1]; application rate 20 mg/m^2 | [1]; application rate 100 mg/m^2

COc1cc(OCc2ncc(OCCN(C)OC)cc2F)ccc1Br [Example 86]
80-100%: [1]; application rate 20 mg/m^2 | [3]; application rate 20 mg/m^2

COc1cc(OCCN(C)OC)cnc1COc1ccc(Cl)c2ccccc12 [Example 91]
80-100%: [1]; application rate 20 mg/m^2

COc1cc(OCCN(C)OC)cnc1COc1cccc2c(Cl)c(Cl)ccc12 [Example 93]
80-100%: [2]; application rate 20 mg/m^2

COc1cc(OCCN(C)OC)cnc1COc1cccc(-c2ccccc2)c1 [Example 94]
80-100%: [1]; application rate 20 mg/m^2 | [1]; application rate 100 mg/m^2

CON(C)CCOc1cnc(COc2cccc(I)c2)c(F)c1 [Example 95]
80-100%: [1]; application rate 100 mg/m^2 | [2]; application rate 20 mg/m^2 | [2]; application rate 100 mg/m^2

CON(C)CCOc1ncc(COc2ccc(Cl)c3ccccc23)cn1 [Example 98]
80-100%: [2]; application rate 20 mg/m^2 | [2]; application rate 100 mg/m^2
